First the molecules themselves.
T1: SIRP-α mouse BL6 (mouse (BL6)) (UniProt P97797)
T1 sequence (looked up): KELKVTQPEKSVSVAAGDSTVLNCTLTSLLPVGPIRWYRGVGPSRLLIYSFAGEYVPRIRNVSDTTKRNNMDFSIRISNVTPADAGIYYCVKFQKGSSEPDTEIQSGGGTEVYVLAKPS

Sequences of proteins named here, by UniProt entry; tags and fusion partners are left off. A change or cut given only in a name is not applied to a line headed by its entry. A line that says so, or that is headed by a name, gives the form on record, which may keep a tag or linker. Residues count along the entry.
SIRP-α human v2 (P78324, form named): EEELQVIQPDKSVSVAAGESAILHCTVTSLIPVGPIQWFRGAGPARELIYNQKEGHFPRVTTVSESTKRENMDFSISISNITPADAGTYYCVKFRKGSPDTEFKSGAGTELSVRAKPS
UniProt O00241, residues 30-148: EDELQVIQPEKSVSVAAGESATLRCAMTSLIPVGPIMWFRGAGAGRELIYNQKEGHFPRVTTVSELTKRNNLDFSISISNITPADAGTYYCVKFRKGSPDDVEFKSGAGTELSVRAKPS
UniProt Q9P1W8, residues 29-147: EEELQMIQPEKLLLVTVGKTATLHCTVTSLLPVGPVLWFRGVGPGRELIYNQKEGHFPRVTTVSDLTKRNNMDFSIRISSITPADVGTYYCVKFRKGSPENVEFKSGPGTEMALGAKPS

B1: Anti-SIRP-α antibody 119, light chain wt, heavy chain wt (antibody, V domains shown)
VH: EVQLLESGGGVVQPGGSLRLSCAASGFSFSNFAMTWVRQAPGEGLEWVSTIGSGDTYYADSVKGRFTISRDNSKNTLYLQMNSLRAEDTAVYYCAKDSTVSWSGDFFDYWGLGTLVTVSS
VL: EIVLTQSPATLSVSPGERATFSCRASQNVKNDLAWYQQRPGQAPRLLIYAARIRETGIPERFSGSGSGTEFTLTITSLQSEDFAVYYCQQYYDWPPFTFGGGTKVEIK
B2: Anti-SIRP-α antibody 119, light chain wt, heavy chain Mut (antibody, V domains shown)
VH: B1 VH with M34V, E43K, L112Q
VL: B1 VL
B3: Anti-SIRP-α antibody 135, light chain wt, heavy chain wt (antibody, V domains shown)
VH: B1 VH with E1D, L5V, Q13R, G16E, N31I, F32Y, T35S, S53A, G54D, S101G
VL: EIVLTQSPATLSVSPGERVTFSCRASQNVRSDIAWYQQKPGQAPRLLIYAASSRDTGIPDRFSGSGSGTDFTLTISSLQSEDFGVYYCQQYYDWPPFTFGGGTKVEIK
B4: Anti-SIRP-α antibody 119, light chain Mut, heavy chain wt (antibody, V domains shown)
VH: B1 VH
VL: B1 VL with F21L, R39K, E60A, T76S
B5: Anti-SIRP-α antibody 135, light chain Mut, heavy chain wt (antibody, V domains shown)
VH: B1 VH with E1D, L5V, Q13R, G16E, N31I, F32Y, T35S, S53A, G54D, S101G
VL: B3 VL with F21L, D60A
B6: Anti-SIRP-α antibody 135, light chain wt, heavy chain Mut (antibody, V domains shown)
VH: B1 VH with L5V, N31I, F32Y, M34V, T35S, E43K, S53A, G54D, S101G, L112Q
VL: B3 VL
B7: Anti-SIRP-α antibody 119, light chain Mut, heavy chain Mut_V34M (antibody, V domains shown)
VH: B1 VH with E43K, L112Q
VL: B1 VL with F21L, R39K, E60A, T76S
B8: Anti-SIRP-α antibody 135, light chain Mut, heavy chain Mut (antibody, V domains shown)
VH: B1 VH with L5V, N31I, F32Y, M34V, T35S, E43K, S53A, G54D, S101G, L112Q
VL: B3 VL with F21L, D60A
B9: Anti-SIRP-α antibody 135, light chain wt, heavy chain Mut_V34M (antibody, V domains shown)
VH: B1 VH with L5V, N31I, F32Y, T35S, E43K, S53A, G54D, S101G, L112Q
VL: B3 VL
B10: Anti-SIRP-α antibody 119, light chain Mut, heavy chain Mut (antibody, V domains shown)
VH: B1 VH with M34V, E43K, L112Q
VL: B1 VL with F21L, R39K, E60A, T76S
B11: Hum1/AB21_HC_Mutall (antibody, V domains shown)
VH: EVQLVESGGGVVQPGGSLRLSCAASGFTFSSNAMSWVRQAPGKGLEWVAGISAGGSDTYYPASVKGRFTISRDNSKNTLYLQMNSLRAEDTAVYYCARETWNHLFDYWGQGTLVTVSS
VL: SYELTQPPSVSVSPGQTARITCSGGSYSSYYYAWYQQKPGQAPVTLIYSDDKRPSNIPERFSGSSSGTTVTLTISGVQAEDEADYYCGGYDQSSYTNPFGGGTKLTVL
B12: Hum9/AB21_HC_Mutall (antibody, V domains shown)
VH: B11 VH
VL: B11 VL with S26A, T45L, L46V, N56G
B13: Anti-SIRP-α antibody 136, light chain Mut_I2T, heavy chain Mut_V34M (antibody, V domains shown)
VH: EVQLVESGGGVVQPGRSLRLSCAASGFTFSSYDMNWVRQAPGKGLEWVSLISGSGEIIYYADSVKGRFTISRDNSKNTLYLQMNSLRAEDTAVYYCAKENNRYRFFDDWGQGTLVTVSS
VL: ETVLTQSPGTLSLSPGERATLSCRASQSVYTYLAWYQQKPGQAPRLLIYGASSRATGIPDRFSGSGSGTEFTLTISSLQSEDFAVYYCQQYYDRPPLTFGGGTKVEIK
B14: Anti-SIRP-α antibody 136, light chain wt, heavy chain Mut (antibody, V domains shown)
VH: B13 VH with M34V
VL: B13 VL with S12T, S22T, Q38E
B15: Anti-SIRP-α antibody 136, light chain Mut_Q38E, heavy chain Mut (antibody, V domains shown)
VH: B13 VH with M34V
VL: B13 VL with T2I, Q38E
B16: Anti-SIRP-α antibody 136, light chain Mut, heavy chain Mut (antibody, V domains shown)
VH: B13 VH with M34V
VL: B13 VL with T2I
B17: Anti-SIRP-α antibody 136, light chain Mut_S12T, heavy chain Mut (antibody, V domains shown)
VH: B13 VH with M34V
VL: B13 VL with T2I, S12T
B18: Anti-SIRP-α antibody 136, light chain Mut_I2T, heavy chain Mut (antibody, V domains shown)
VH: B13 VH with M34V
VL: B13 VL
B19: Anti-SIRP-α antibody 136, light chain Mut_S22T, heavy chain Mut (antibody, V domains shown)
VH: B13 VH with M34V
VL: B13 VL with T2I, S22T

Substitutions are numbered along the chain they refer to. No constants are given. Whether binding was seen depends on the method and setting. Some binding calls cover weakened binding; strength is not graded here.

For one assay, the target named is SIRP-α human v2 (human) (UniProt P78324). Nature of the assay: SPR, antibody on GLC chip, SIRP as analyte. (Surface plasmon resonance follows binding to a sensor surface in real time, without labels.)
In the case of B1, the binding result is “binds”.
As for B2, the binding result is given as “binds”.
The same measure, in the same setting: in the case of B3 it was “binds”.
Turning to B4, the binding result was “binds”.
On the same count and under the same terms, then B5, with “binds”; and B6, with “binds”.
The same measure, in the same setting: in the case of B7 it was “binds”; in that of B8, “binds”.
Regarding B9, the binding result is recorded as “binds”.
The same measure, in the same setting: then B10, with “binds”; and B11, with “binds”.
On the same count and under the same terms, in the case of B12 it was “binds”.

For another assay, the target named is T1, SIRP-α mouse BL6 (mouse (BL6)). Nature of the assay: SPR, antibody on GLC chip, SIRP as analyte.
With B11, the binding entry was “binds”.

A further assay concerns the target Human SIRPβ (human) (UniProt O00241). Nature of the assay: SPR, antibody on GLC chip, SIRP as analyte.
With B1, the binding entry is recorded as “binds”.
Turning to B7, the binding entry is “binds”.
On to B8, for which the binding entry is listed as “binds”.
On the same count and under the same terms, in the case of B9 it was “binds”.
Same read-out and setting: in the case of B10 it was “binds”; in that of B11, “binds”.
The same measure, in the same setting: in the case of B12 it was “binds”.

Another assay deals with SIRP-α cynomolgus (cynomolgus). Nature of the assay: SPR, antibody on GLC chip, SIRP as analyte.
Consider B13, for which the binding result is reported as “binds”.
On the same count and under the same terms, then B1, with “binds”; and B2, with “binds”; and B3, with “binds”.
On the same count and under the same terms, then B4, with “binds”.
Still for that read-out and setting: in the case of B5 it was “binds”; in that of B6, “binds”; in that of B7, “binds”.
B8: the binding entry is reported as “binds”.
On the same count and under the same terms, in the case of B9 it was “binds”; in that of B10, “binds”; in that of B11, “binds”.
In the case of B12, the binding entry is reported as “binds”.

The next assay has as its target Human SIRPγ (human) (UniProt Q9P1W8). Description: SPR, antibody on GLC chip, SIRP as analyte.
Consider B13, for which the binding entry is on record as “binds”.
Turning to B14, the binding result was “binds”.
On the same count and under the same terms, then B15, with “binds”.
In the case of B16, the binding entry is “binds”.
The same measure, in the same setting: in the case of B17 it was “binds”; in that of B18, “binds”.
On the same count and under the same terms, then B19, with “binds”; and B1, with “binds”.
For the molecule B3, the binding result was “binds”.
The same measure, in the same setting: then B4, with “binds”.
On the same count and under the same terms, then B5, with “binds”; and B6, with “binds”; and B7, with “binds”.
On the same count and under the same terms, then B8, with “binds”; and B9, with “binds”; and B10, with “binds”.
With B11, the binding result is “binds”.
Consider B12, for which the binding result is “binds”.

The values above are taken from patent US20220096649A1.
